The values that follow come from patent US20110136676.

Chains of the proteins cited; added tags and fusions are not shown. Chains listed by the source or under a name are the forms on record and can include a tag or linker.
Mlh1-Pms1 cleaved by TEV protease in linker arms (Saccharomyces cerevisiae), one chain, as listed by the source, chain 2 of 2: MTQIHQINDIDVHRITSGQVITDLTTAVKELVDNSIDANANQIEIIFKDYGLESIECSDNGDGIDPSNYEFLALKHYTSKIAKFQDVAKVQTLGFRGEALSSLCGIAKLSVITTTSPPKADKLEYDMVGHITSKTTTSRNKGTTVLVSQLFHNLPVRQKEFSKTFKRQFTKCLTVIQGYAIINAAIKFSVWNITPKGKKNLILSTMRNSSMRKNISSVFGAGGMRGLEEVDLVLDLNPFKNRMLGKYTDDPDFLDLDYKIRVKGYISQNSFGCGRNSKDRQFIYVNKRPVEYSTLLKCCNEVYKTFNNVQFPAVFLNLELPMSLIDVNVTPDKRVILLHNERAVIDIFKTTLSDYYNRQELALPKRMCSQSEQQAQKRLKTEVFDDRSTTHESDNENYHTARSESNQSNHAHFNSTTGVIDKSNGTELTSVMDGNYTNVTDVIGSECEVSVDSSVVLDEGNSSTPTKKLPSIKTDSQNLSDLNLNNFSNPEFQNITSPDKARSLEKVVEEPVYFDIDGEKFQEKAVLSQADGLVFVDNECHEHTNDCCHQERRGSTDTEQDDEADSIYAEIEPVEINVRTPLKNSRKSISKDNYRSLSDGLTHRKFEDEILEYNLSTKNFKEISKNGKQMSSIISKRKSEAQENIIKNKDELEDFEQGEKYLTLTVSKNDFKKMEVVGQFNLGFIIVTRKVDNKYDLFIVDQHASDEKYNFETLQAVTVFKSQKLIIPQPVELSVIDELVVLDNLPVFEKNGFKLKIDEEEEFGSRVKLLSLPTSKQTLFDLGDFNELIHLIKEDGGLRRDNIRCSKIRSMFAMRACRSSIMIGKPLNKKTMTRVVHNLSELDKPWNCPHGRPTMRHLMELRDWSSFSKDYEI
Mlh1-Pms1 cleaved by TEV protease in linker arms (Saccharomyces cerevisiae), one chain, as listed by the source, chain 1 of 2: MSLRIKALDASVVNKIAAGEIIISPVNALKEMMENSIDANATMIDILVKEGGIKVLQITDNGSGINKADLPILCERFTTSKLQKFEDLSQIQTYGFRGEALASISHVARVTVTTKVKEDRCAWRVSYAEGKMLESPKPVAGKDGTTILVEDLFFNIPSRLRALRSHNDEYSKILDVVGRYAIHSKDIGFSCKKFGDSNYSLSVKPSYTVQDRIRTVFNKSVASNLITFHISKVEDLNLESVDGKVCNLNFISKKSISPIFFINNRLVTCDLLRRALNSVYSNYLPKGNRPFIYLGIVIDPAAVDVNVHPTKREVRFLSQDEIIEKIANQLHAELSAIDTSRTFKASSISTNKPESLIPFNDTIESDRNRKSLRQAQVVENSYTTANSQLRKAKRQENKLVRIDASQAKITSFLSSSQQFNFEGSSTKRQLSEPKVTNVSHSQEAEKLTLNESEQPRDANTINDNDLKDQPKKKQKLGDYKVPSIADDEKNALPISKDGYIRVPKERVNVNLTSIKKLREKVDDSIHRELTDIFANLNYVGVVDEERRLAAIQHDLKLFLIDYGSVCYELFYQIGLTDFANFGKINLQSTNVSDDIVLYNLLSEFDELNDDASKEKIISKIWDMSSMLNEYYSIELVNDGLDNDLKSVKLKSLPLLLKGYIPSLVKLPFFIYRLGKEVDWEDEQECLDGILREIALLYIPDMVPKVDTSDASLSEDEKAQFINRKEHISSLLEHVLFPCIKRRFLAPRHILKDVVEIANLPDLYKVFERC

The data set concerns Mlh1-Pms1 cleaved by TEV protease in linker arms (Saccharomyces cerevisiae). Kind of data set: EMSA. Particulars: cleavage of one or both linker arms abolished detectable binding; purified recombinant protein; label: 5'-32P.

A negative result means that nothing was seen under these conditions.

On to “ACCGAATTCTGACTTGCTAGGACATCTTTGCCCACGTTGA (double strand) [40 bp S1/S2 duplex]”, for which the binding result is recorded as “no binding”.
